According to PubChem BioAssay AID540276 (National Center for Advancing Translational Sciences (NCATS), 2011):
Among all 300,000 compounds or so, about 5,400 (1.8%) were called active. Inconclusive results, whose numbers are uncertain, are shown with a selection of clear calls. The call rests on the fitted dose curve; tested in HEK293 cells. Where the call is inconclusive, the potency comes from a doubtful curve fit.

Experiment: qHTS for inhibitors of binding or entry into cells for Marburg Virus
Conditions: Marburg virus pseudotyped entry inhibition, cell reporter; series mostly up to 37.8 µM
Potency means the concentration at half of the fitted maximal effect.

Row | SMILES | Potency
1 | O=C(Nc1cccc(C(F)(F)F)c1)C1CCCN(S(=O)(=O)c2cccc3nonc23)C1 (centres undefined) | inactive
2 | Cc1ccc(C(C(=O)NC(C)(C)C)N(Cc2cccs2)C(=O)c2csnn2)cc1 (centres undefined) | inactive
3 | COc1ccc(-c2csc(NC(=O)CS(=O)(=O)c3ccccc3)n2)cc1 | inconclusive: 15.8 µM [inhibitor, partial curve, poor fit]
4 | Cc1ccc(C(C)C)cc1OCCCCN1CCCC1 | inconclusive: 22.4 µM [inhibitor, partial curve, poor fit]
5 | COc1ccc(C(=O)C2CCN(CC(=O)NCc3ccccc3)CC2)cc1 | inactive
6 | Cc1nn(CCO)c(N)c1C1(O)C(=O)Nc2c(Cl)cc(Cl)cc21 (centres undefined) | inconclusive: 3.16 µM [inhibitor, full curve]
7 | O=c1nccc(N/N=C/c2cccc(O)c2)[nH]1 | inconclusive: 2.51 µM [inhibitor, partial curve, poor fit]
8 | O=C(Nc1cccc(Cl)c1N1CCCCC1)c1ccc(N2CCOCC2)c([N+](=O)[O-])c1 | inactive
9 | CCNC(=S)N/N=C(\C)c1ccc(N2CCOCC2)cc1 | inactive
10 | O=C(COC(=O)C1=COCCO1)Nc1ccc(Br)cc1Br | inconclusive: 5.01 µM [activator, full curve, poor fit]
11 | COc1cc2cc(CN(Cc3cccs3)C(=S)Nc3ccccc3)c(=O)[nH]c2cc1OC | inconclusive: 31.6 µM [inhibitor, single point]
12 | N#CC1=C(SCC(=O)c2ccc(Br)cc2)NC2=C(C(=O)CCC2)C1c1ccco1 (centres undefined) | active: 8.91 µM
13 | CCOc1ccc2nc(NC(=O)CSc3ccc(Cl)cc3)sc2c1 | inconclusive: 29.1 µM [inhibitor, single point]
14 | C=CCc1cc(/C=N/NC(=O)CSc2nnc(CCCc3ccc(OC)cc3)o2)cc(OC)c1O | inactive
15 | Cc1cccc(Nc2nc(N3CCCCC3)nc(N3CCCCC3)n2)c1 | inconclusive: 7.3 µM [inhibitor, partial curve, poor fit]
16 | O=C1C[C@@H](c2ccc(O[C@@H]3O[C@H](CO)[C@@H](O)[C@H](O)[C@H]3O)cc2)Oc2cc(O)ccc21 | inconclusive: 23.1 µM [activator, single point]
17 | C=CCc1cccc2cc(C(=O)O)c(=O)oc12 | inconclusive: 0.146 µM [inhibitor, full curve, poor fit]
18 | O=C1Nc2ccc(F)cc2C12SCCS2 | inactive
19 | O=C(NNC(=O)c1cc2ccccc2cc1O)Nc1ccc(F)cc1F | inactive
20 | COC(=O)C1=C(CN2CCN(C)CC2)NC(=O)NC1c1cc(C)ccc1C (centres undefined) | inconclusive: 35.5 µM [inhibitor, single point]
21 | COc1ccc(N2CCN(CCN3C(=O)c4ccccc4C3=O)CC2)cc1 | inconclusive: 12.6 µM [activator, partial curve, poor fit]
22 | Cc1ccccc1Nc1scc(-c2ccc(Cl)cc2)[n+]1-c1ccccc1C | inconclusive: 11.6 µM [inhibitor, partial curve, poor fit]

A draw from above in order of count of non-hydrogen atoms, rising:
Row | SMILES | Potency
9 | CCNC(=S)N/N=C(\C)c1ccc(N2CCOCC2)cc1 | inactive
22 | Cc1ccccc1Nc1scc(-c2ccc(Cl)cc2)[n+]1-c1ccccc1C | inconclusive: 11.6 µM [inhibitor, partial curve, poor fit]
1 | O=C(Nc1cccc(C(F)(F)F)c1)C1CCCN(S(=O)(=O)c2cccc3nonc23)C1 (centres undefined) | inactive

The results go on:

Row | SMILES | Potency
23 | CC1(C)Cc2c(sc3c2C(=O)N(c2ccccc2)C2=NCCN23)CS1 | inactive
24 | COc1ccc(CCN2C(=S)N(C)C(=O)C2CC(=O)Nc2ccc(F)cc2)cc1 (centres undefined) | inconclusive: 20 µM [inhibitor, single point]
25 | COC(=O)[C@H](Cc1ccccc1)N1C/C=C\COc2c(Cl)cc(Cl)cc2S1(=O)=O | inconclusive: 7.91 µM [inhibitor, full curve]
26 | CCOc1cc(C#N)c(NC(=O)c2ccco2)cc1OCC | inconclusive: 3.26 µM [inhibitor, full curve, poor fit]
27 | CCOC(=O)C1=C(C)Nc2ccccc2N=C1NC(=O)Cc1ccc(Cl)c(Cl)c1 | inactive
28 | COc1ccc(C(=O)N(Cc2nc(-c3ccc(C)cc3)no2)C2CCCCC2)cc1OC | inconclusive: 32.6 µM [inhibitor, single point]
29 | COc1cc(OC)c2c(C)c(CC(=O)N3CCCCC3)c(=O)oc2c1 | inactive
30 | COc1ccc2nc(C)cc(N3CC(C)OC(C)C3)c2c1 (centres undefined) | inconclusive: 0.164 µM [inhibitor, full curve, poor fit]
31 | C#CCN(C(=O)c1ccc(OC2CCN(Cc3ccccn3)CC2)cc1)C1CCCCC1 | inconclusive: 35.5 µM [inhibitor, single point]
32 | Cc1ccc(CN2CCC(CNC(=O)Nc3cccc(C)c3C)C2)cc1 (centres undefined) | inconclusive: 15.8 µM [inhibitor, single point]
33 | COc1ccc(OCCCC(=O)NCCc2ccc(OC)c(OC)c2)cc1 | inconclusive: 1.12 µM [activator, partial curve, poor fit]
34 | COC(=O)c1c(Oc2ccc(Br)cc2)nnc(-c2ccccc2)c1-c1ccccc1 | inconclusive: 2.24 µM [inhibitor, single point]
35 | CSc1nnc(CSCc2ccc(Cl)cc2Cl)n1-c1ccccc1 | inconclusive: 18.3 µM [inhibitor, single point]
36 | CCC(C)(C(=O)NC1CCCC1)N(C(=O)CC1NC(=O)NC1=O)c1c(C)n(C)n(-c2ccccc2)c1=O (centres undefined) | inactive
37 | O=C(NC(=S)NCc1nc2ccccc2[nH]1)c1ccc(F)cc1 | inactive
38 | CN(c1ccccc1)S(=O)(=O)c1cccc(NC(=O)Cc2ccc(Cl)cc2)c1 | inconclusive: 7.94 µM [inhibitor, partial curve, poor fit]
39 | O=C(Nc1ccc(C(=O)OC2CCCCC2)cc1)c1ccncc1 | inconclusive: 7.94 µM [inhibitor, partial curve, poor fit]
40 | CN1CCN(C(=S)c2ccc(Cl)cc2)CC1 | inactive
41 | CCc1ccc(CN2CCC(C(=O)Nc3cccc(-c4nnc(C)s4)c3)CC2)o1 | inconclusive: 35.5 µM [inhibitor, single point]
42 | COc1ccc(CC(=O)Nc2cc(S(=O)(=O)N3CCCCC3)ccc2N2CCN(C)CC2)cc1 | inconclusive: 29.1 µM [inhibitor, single point]
43 | CC1CCN(C(=O)CSC2=NS(=O)(=O)c3cc(F)ccc3N2)CC1 | inactive
44 | CC(=O)Nc1cccc(C(=O)N/N=C/c2ccccc2F)c1 | inconclusive: 13 µM [inhibitor, partial curve, poor fit]
